According to PubChem BioAssay AID1347076 (National Center for Advancing Translational Sciences (NCATS), 2019):
Screen size: about 400,000 compounds; about 13,000 (3.2%) were called active. The shares of active, inactive and inconclusive entries below differ from those in the screen. Calls come from the whole dose curve; as a rule, active = well fitted cell-killing curve with a large enough effect; inconclusive = small, poorly fitted or top-dose-only effect, or effect the other way; inactive = flat fitted curve, though single readings scatter. Potencies beside an inconclusive call are fits to weak or partial responses and may not hold up.

Test: qHTS assay for MDR1-selective chemotherapeutics: Primary screen using the drug-selected MDR subline cells KB-V1; note: nearly all actives have a fitted effect of over 60% in size
Conditions: KB-V1 MDR cells viability, CellTiter-Glo, 72 h; series mostly up to 46.1 µM
Summary of the method: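 Readout: CellTiter-Glo luminescence, 10 min after addition. Cells: KB-V1 MDR subline, 72 h at 37 degrees C with compound. Analysis: corrected, normalized data fitted to concentration-effect curves.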
Potency is the fitted concentration of half-maximal effect.

| SMILES | Potency |
| --- | --- |
| COc1cc(C(=O)OCC(=O)c2ccccc2)cc2c1OCCO2 | inactive |
| Nc1nnc(/C=C/c2ccccc2Cl)s1 | inconclusive: 32.6 µM [cytotoxic, single point] |
| Cc1ccc(NC(=S)NC(=O)c2cncc(Br)c2)cc1Cl | inactive |
| C[C@H](CO)N1C[C@H](C)[C@@H](CN(C)S(=O)(=O)c2cn(C)cn2)Oc2ncc(Br)cc2C1=O | inactive |
| CC(C)CNC(=O)Nc1cc(C(=O)NCc2ccc(C(C)C)cc2)ccc1N1CCCC1 | inactive |
| CCOc1ccc(NCc2nnc(SCC(=O)Nc3cc(C)on3)n2-c2ccccc2OC)cc1 | inconclusive: 20.6 µM [cytotoxic, partial curve] |
| COc1ccc(NC(C)=O)cc1NC(=O)CN1CCN(CC(=O)Nc2ccc(Cl)cc2)CC1 | inconclusive: 14.6 µM [rising, single point] |
| CCC(=O)N1CCc2cc(S(=O)(=O)NCCC(=O)Nc3ccc(CC)cc3)ccc21 | inactive |
| COc1cc(/C=C/c2cc[n+](C)c3ccccc23)cc(OC)c1OC | inactive |
| COc1ccc(CNC(=O)Cn2c(-c3ccccc3)cc(C(C)=O)c2C)cc1OC | inconclusive: 16.4 µM [cytotoxic, single point] |
| O=C(NCC1CC1)c1cc2c(c(-c3cccc(-c4ccccc4F)c3)n1)[C@H](CCO)N(C(=O)CC1CC1)C2 | inconclusive: 25.9 µM [cytotoxic, partial curve, poor fit] |
| COC(=O)c1cn(NC(=O)c2cc([N+](=O)[O-])ccc2F)c(=O)c2ccccc12 | active: 11.6 µM |
| CN(C(=O)c1ccncc1)C1CCCCC1 | inactive |
| Cc1nn(C)c(C)c1CCNC(=O)Nc1ccccc1C(F)(F)F | inactive |
| COc1ccc(N2CCN(C(=O)c3ccc(CS(=O)c4cccc(Cl)c4)o3)CC2)cc1 (stereo unspecified) | inconclusive: 29.1 µM [cytotoxic, single point] |
| CC(=O)Nc1nc2ccc(S(=O)(=O)N3CCCC3)cc2s1 | inactive |
| COCCNC(=S)Nc1ccc([N+](=O)[O-])cc1C | inconclusive: 29.1 µM [rising, single point] |
| Cc1ccc(C(=O)CSc2nnc(-c3ccco3)n2Cc2ccccc2)cc1 | inconclusive: 18.4 µM [cytotoxic, single point] |
| CCCc1cc(Nc2ccc(C)cc2)n2ncnc2n1 | inconclusive: 23.1 µM [cytotoxic, partial curve, poor fit] |
| CN(Cc1ccco1)S(=O)(=O)c1nnc(NC(=O)c2ccccc2Cl)s1 | inconclusive: 29.1 µM [rising, single point] |
| CC(C)C(NC(=O)c1ccc(Cl)cc1)C(=O)NC1=NCCS1 (stereo unspecified) | active: 20.6 µM |
| CCC(=O)N1CCc2cc(S(=O)(=O)NC(C(=O)NCCc3cccc(C)c3)C(C)C)ccc21 (stereo unspecified) | inactive |
| CC1=C(C(=O)N(C(C)C)C(C)C)CC(CC(=O)NCCc2ccccn2)C(=O)N1Cc1ccc(C(C)(C)C)cc1 (stereo unspecified) | inactive |
| COc1cc(Cl)c(C)cc1Nc1nc2ccccc2n2cnnc12 | inactive |

| SMILES | Potency |
| --- | --- |
| CCOC(=O)c1ccc(NC(=S)NCCc2ccc(F)cc2)cc1 | inconclusive: 6.51 µM [cytotoxic, full curve, poor fit] |
| O=C(NCc1ccccn1)[C@@H]1CCCN1C(=O)[C@@H]1CCCN1 | inactive |
| CSc1nc2cc(Oc3cccc(Cl)c3Cl)c(Cl)cc2[nH]1 | inactive |
| Cc1ccc(NC(=O)CSc2ccc(S(=O)(=O)N3CCCC3)cn2)cc1F | inconclusive: 29.1 µM [rising, partial curve, poor fit] |
| NCCNC[C@@H]1COC2(CCCCCCCCCCC2)O1 | inconclusive: 20.6 µM [cytotoxic, single point] |
| Cc1cccc(N(CC(=O)N2CCCCCC2)S(C)(=O)=O)c1 | inactive |
| CCc1cccc(CC)c1NC(=S)NCCc1c(C)[nH]c2ccc(C)cc12 | active: 5.8 µM |
| Cc1cc(C)c2nc(N3C(=O)C(O)=C(C(=O)c4ccco4)C3c3cccc(O)c3)sc2c1 (stereo unspecified) | inconclusive: 0.058 µM [rising, full curve] |
| CC(CC(=O)N1CCN(c2ccccc2)CC1)S(=O)(=O)c1ccc2c(c1)NC(=O)CO2 (stereo unspecified) | inactive |
| COc1ccccc1CN1CC(C(=O)NCc2ccc(SC)cc2)CCC1=O (stereo unspecified) | inconclusive: 18.4 µM [cytotoxic, single point] |
| CCCCS(=O)(=O)Nc1ccc(Cc2ccncc2)cc1 | inconclusive: 23.1 µM [cytotoxic, single point] |
| O=C(Nc1ccc2nc(-c3ccco3)[nH]c2c1)c1cccs1 | inactive |
| CC(=O)c1c(C)[nH]c(C(=O)Nc2ccc(F)c(F)c2F)c1C | inconclusive: 32.6 µM [cytotoxic, single point] |
| CCOC(=O)Cc1csc(NC(=O)CCCCCN2C(=O)c3ccccc3C2=O)n1 | inconclusive: 14.6 µM [cytotoxic, partial curve] |
| FC(F)(F)c1cccc(N2CCN(C(=S)NC3CCCCC3)CC2)c1 | active: 20.6 µM |
| Cc1cccc(NC(=O)CNC(=O)COc2ccc(-c3ccc(C#N)cc3)cc2)c1C | inactive |
| Fc1ccccc1N1CCN(C2CCCN(Cc3ccccc3C(F)(F)F)C2)CC1 (stereo unspecified) | inconclusive: 3.26 µM [cytotoxic, partial curve, poor fit] |
| CC(=O)c1ccc(Nc2nc3ccccc3nc2NS(=O)(=O)c2cccs2)cc1 | inconclusive: 20.6 µM [cytotoxic, partial curve] |
| COCc1ccc(O)c2ncccc12 | active: 11.6 µM |
| CC(c1ccccn1)N(C)C(=O)c1ccc2nc(Cc3ccccc3F)oc2c1 (stereo unspecified) | inconclusive: 11.6 µM [cytotoxic, partial curve] |
| CCc1cccc(C)c1NC(=O)c1cnn(-c2ccc(OC)cc2)c1C1CCN(C(=O)OC(C)(C)C)CC1 | inactive |
| O=C(Nc1cc([N+](=O)[O-])ccc1O)c1cccc(NC(=O)c2ccco2)c1 | inconclusive: 7.31 µM [rising, partial curve, poor fit] |
| COc1cccc(NC(=O)c2sc(NC(=O)c3ccncc3)nc2C)c1 | inconclusive: 20.6 µM [cytotoxic, partial curve, poor fit] |
| CCOc1cc(/C=N/NC(=O)c2ccccn2)ccc1OC(=O)c1ccc(F)cc1 | inactive |

A second format for part of the listing above:
SMILES,Potency
CCCCS(=O)(=O)Nc1ccc(Cc2ccncc2)cc1,"inconclusive: 23.1 µM [cytotoxic, single point]"
O=C(Nc1ccc2nc(-c3ccco3)[nH]c2c1)c1cccs1,inactive
CC(=O)c1c(C)[nH]c(C(=O)Nc2ccc(F)c(F)c2F)c1C,"inconclusive: 32.6 µM [cytotoxic, single point]"
CCOC(=O)Cc1csc(NC(=O)CCCCCN2C(=O)c3ccccc3C2=O)n1,"inconclusive: 14.6 µM [cytotoxic, partial curve]"
FC(F)(F)c1cccc(N2CCN(C(=S)NC3CCCCC3)CC2)c1,active: 20.6 µM

Further compounds

| SMILES | Potency |
| --- | --- |
| COCCNC(=O)c1cc(-c2cccs2)on1 | active: 20.6 µM |
| O=C(c1ccccc1Oc1ccccc1)N1CCN(c2ccccc2F)CC1 | inconclusive: 8.2 µM [cytotoxic, partial curve] |
| O=C(COc1ccccc1[N+](=O)[O-])Nc1cccnc1 | inconclusive: 29.1 µM [cytotoxic, single point] |
| O=C1OCC2=C1C(c1ccc(F)cc1)Sc1ccccc1N2 (stereo unspecified) | inconclusive: 29.1 µM [cytotoxic, single point] |
| Cc1ccc2c(C)c(C(=O)N3CCN(Cc4ccc5c(c4)OCO5)CC3)oc2c1C | inconclusive: 16.4 µM [cytotoxic, single point] |
| CS(=O)(=O)Nc1cccc(NC(=O)c2cccc3c(-c4ccc(F)c(F)c4)coc23)c1 | inconclusive: 29.1 µM [cytotoxic, single point] |
| COCC(C)NC(=O)CSc1nc(-c2ccccc2)c(-c2ccccc2)o1 (stereo unspecified) | inconclusive: 14.6 µM [cytotoxic, partial curve] |
| Nc1nc(Sc2ccc([N+](=O)[O-])c3nonc23)c2[nH]cnc2n1 | inconclusive: 0.82 µM [cytotoxic, full curve, poor fit] |
| CN(C(=O)CC1C(=O)NCCN1CC1CCCCC1)C1CCOCC1 (stereo unspecified) | inconclusive: 0.0366 µM [rising, full curve] |
| O=C1c2ccccc2C(=O)c2c(NCc3cccnc3)cccc21 | active: 8.2 µM |
| COc1ccc(OC)c(NC(=O)CCNC(=O)c2ccco2)c1 | inconclusive: 20.6 µM [rising, single point] |
| CC(C(=O)NCc1ccccc1)n1c(-c2ccc3c(c2)CCO3)nc2ccccc21 (stereo unspecified) | inconclusive: 4.61 µM [cytotoxic, partial curve] |
| Cc1cccc(NC(=O)[C@H](Cc2c[nH]c3ccccc23)NC(=O)[C@@H]2Cc3ccccc3CN2)c1 | inactive |
| CCOC(=O)c1ccccc1NC(=O)CN(c1cccc(OC)c1)S(C)(=O)=O | inconclusive: 18.4 µM [cytotoxic, single point] |
| COc1ccc(C=NNC(=S)NC23CC4CC(CC(C4)C2)C3)cc1OC | active: 2.91 µM |
| CCOC(=O)C1=CCN(S(=O)(=O)c2ccccc2C)C1c1cccc(Cl)c1 (stereo unspecified) | active: 20.6 µM |
| CCCCCCOc1ccc(C(CC(=O)NC)C(=O)O)cc1 (stereo unspecified) | inconclusive: 16.4 µM [rising, single point] |
| COc1ccc(Nc2nc(-c3ccccc3)c3ccccc3n2)cc1 | inconclusive: 29.1 µM [cytotoxic, single point] |
| COc1ccc(S(=O)(=O)Nc2ccccc2C)cc1 | inconclusive: 16.4 µM [cytotoxic, single point] |
| Cc1ccc(S(=O)(=O)N2CCN(C(=O)CCC(=O)Nc3ccc(F)cc3F)CC2)cc1 | inconclusive: 29.1 µM [cytotoxic, single point] |
| O=S(=O)(NCC1CCCO1)c1ccc(-c2ccc(S(=O)(=O)NCC3CCCO3)cc2)cc1 (stereo unspecified) | inconclusive: 2.59 µM [cytotoxic, full curve, poor fit] |
| O=C(C1=C[C@@H](c2ccc(C(F)(F)F)cc2)C[C@@H](OCc2ccc(CO)cc2)O1)N1CCN(Cc2ccccc2)CC1 | inconclusive: 29.1 µM [cytotoxic, single point] |
| O=C1C(=NO)CC(c2ccccc2)N1c1ccccc1 (stereo unspecified) | inconclusive: 14.6 µM [cytotoxic, single point] |
